# Hit rate of the full screen: of about 310,000 compounds, about 17,000 (5.5%) were called active. The inconclusive results got no clear call from the source; some entries with a clear call stand among them for comparison. Calls follow the shape of the dose curve; as a rule, active = well fitted inhibition curve with a large enough effect; inconclusive = small, poorly fitted or top-dose-only effect, or effect the other way; inactive = no such curve, though single readings can be large or run the other way. Potencies of inconclusive entries are doubtful fits and often do not repeat.
# Chains of the proteins cited; added tags and fusions are not shown. Lines headed by an entry give the natural chain unless they say otherwise; changes in a name come on top.
# UniProt P51450: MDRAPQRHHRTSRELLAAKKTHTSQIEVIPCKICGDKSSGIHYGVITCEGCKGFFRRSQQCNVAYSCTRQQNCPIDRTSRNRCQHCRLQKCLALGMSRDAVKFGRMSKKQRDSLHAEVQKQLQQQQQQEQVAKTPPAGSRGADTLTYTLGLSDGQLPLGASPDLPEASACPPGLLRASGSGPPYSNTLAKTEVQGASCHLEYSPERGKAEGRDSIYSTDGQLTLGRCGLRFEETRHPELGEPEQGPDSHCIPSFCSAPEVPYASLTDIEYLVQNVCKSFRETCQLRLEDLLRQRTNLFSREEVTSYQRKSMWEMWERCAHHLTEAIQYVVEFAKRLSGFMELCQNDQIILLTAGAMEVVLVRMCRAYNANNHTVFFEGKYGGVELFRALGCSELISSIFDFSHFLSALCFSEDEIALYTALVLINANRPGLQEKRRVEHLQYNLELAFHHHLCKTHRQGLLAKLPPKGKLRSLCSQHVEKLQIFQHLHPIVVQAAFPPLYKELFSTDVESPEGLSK
# Molecular target: Nuclear receptor ROR-gamma (Mus musculus) (UniProt P51450)
# Experiment: qHTS for inhibitors of ROR gamma transcriptional activity; also: nearly all actives have a fitted effect of over 60% in size
# Details: Drosophila S2 Gal4-RORgamma UAS-luciferase reporter, 20 h; series mostly up to 53.6 µM
# Procedure, shortened: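 Stable Schneider cell line, Gal4 DNA-binding domain fused to ROR gamma, UAS-luciferase. Cmpd 1 hr RT → CuSO4 700 uM final → 20 hr RT → luciferase reagent 10 min → luminescence.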
# Potency is read from the fitted curve at half-maximal effect.
row,Structure (SMILES),Potency
1,O=[N+]([O-])c1cc(C(F)(F)F)ccc1Sc1nccn1Cc1ccccc1,inactive
2,Cn1c(CCN2CCN(c3ccccn3)CC2)nc2cc(NS(=O)(=O)c3ccc(Cl)cc3)ccc21,"inconclusive: 31.6 µM [activator, single point]"
3,CCOC(=O)c1c(C)n(-c2ccc(C)cc2)c2ccc(OCC(O)CN3CCN(C)CC3)cc12 (stereo not given),"inconclusive: 35.5 µM [inhibitor, single point]"
4,Cn1c(CN2CCN(S(C)(=O)=O)CC2)nc2cc([N+](=O)[O-])ccc21,"inconclusive: 17.8 µM [inhibitor, single point]"
5,Cc1ccc(Cn2cccc2/C=C2/C(=N)N3C=CSC3=NC2=O)cc1,active: 12.6 µM
6,COc1ccc(Sc2ccccc2CN(C)C)cc1OC,inactive
7,CC(=O)c1ccc(NC(=S)NCCc2cccc(Cl)c2)cc1,active: 17.8 µM
8,Cc1c(C(=O)O)c(C(=O)O)nc2ccc(N3CCOCC3)cc12,inactive
9,COc1ccccc1CNC(=O)C1CCCC1,inactive
10,CCOC(=O)CC1COCCN1C(=O)c1cc(COc2ccc(F)cc2Cl)on1 (stereo not given),"inconclusive: 5.62 µM [activator, single point]"
11,Cc1cc(=O)c2cc(Cl)ccc2[nH]1,inactive
12,CN(C)c1ccc(-c2nc(Nc3ccncc3)c3ccccc3n2)cc1,"inconclusive: 35.5 µM [inhibitor, single point]"
13,Cc1ccccc1C(CC(=O)c1cccs1)C(C#N)C#N (stereo not given),active: 1.58 µM
14,O=C(O)c1cc(/C=C/c2ccc(N3CCOCC3)cc2)nc2ccccc12,active: 6.31 µM
15,O=C(CNC(=O)C1CCCCC1)NNC(=O)c1ccccc1Br,inactive
16,N=c1c(-c2nc3ccccc3[nH]2)cc(C(=O)c2ccco2)nn1-c1ccccc1,active: 2.82 µM
17,COc1cccc(-c2c(C(=O)N/N=C/c3sccc3C)nnn2-c2nonc2N)c1,active: 8.91 µM
18,Cn1cc(Cl)c(C(=O)OCC(=O)Nc2ccc(S(N)(=O)=O)cc2)n1,inactive
19,O=C1CC(N(C(=O)c2ccco2)c2ccc(F)cc2)C(=O)N1c1ccc(F)cc1 (stereo not given),inactive
20,O=C(Nc1nnc(S(=O)(=O)N2CCOCC2)s1)c1cccc(Br)c1,"inconclusive: 12.6 µM [activator, partial curve]"
21,CN(CC(=O)Nc1ccc(Cl)c(S(=O)(=O)N(C)C)c1)Cc1ccccc1,"inconclusive: 12.6 µM [activator, partial curve]"
22,O=c1cc(-c2ccc(O)cc2)oc2ccccc12,inactive
23,NC(=O)Cn1c(-c2nonc2N)nc2ccccc21,"inconclusive: 1.78 µM [inhibitor, full curve, poor fit]"
24,Cc1[nH]c2ccccc2c1/C=N/NC(=S)NCc1ccccc1,active: 11.2 µM
25,Cc1ccc(OCC(=O)NC(C)c2ccc(Cl)c(Cl)c2)c([N+](=O)[O-])n1 (stereo not given),"inconclusive: 35.5 µM [inhibitor, single point]"

row,Structure (SMILES),Potency
1,CCn1nc(C)c(Br)c1C(=O)Sc1ccccc1Cl,"inconclusive: 35.5 µM [inhibitor, single point]"
2,COc1ccc(C(=O)O/N=C(\N)c2ccccc2)c(OC)c1,active: 4.47 µM
3,CCCCCC(=O)/C=C/[C@H]1[C@H](O)CC(=O)[C@@H]1C/C=C\CCCC(=O)O,"inconclusive: 1.12 µM [activator, full curve]"
4,CCn1c(SCC(=O)Nc2cccnc2Cl)nnc1-c1ccccc1,inactive
5,CCS(=O)(=O)Nc1cccc(-c2nc3cccnc3s2)c1C,"inconclusive: 14.1 µM [activator, partial curve, poor fit]"
6,CCOCCCNC(=O)c1ccc2c(c1)ncn2C1CCCC1,"inconclusive: 20 µM [activator, single point]"
7,O=C(CCCO)N/N=C/c1cc(Br)ccc1O,active: 3.98 µM
8,O=[N+]([O-])c1ccc(S(=O)(=O)CC(CN2CCOCC2)N2CCOCC2)cc1 (stereo not given),"inconclusive: 11.2 µM [inhibitor, single point]"
9,O=c1[nH]c2ccc(Cl)cc2c(-c2ccccc2)c1SC(=S)N1CCCCC1,active: 5.62 µM
10,Cc1cc(C)c2nc(C(F)(F)F)nc(N3CCN(C(=O)c4ccco4)CC3)c2c1,active: 1 µM
11,COC(=O)c1sc(NC(=O)c2csc3c2CCCC3)nc1C,active: 35.5 µM
12,O=C(Cc1cccs1)Nc1ccc(N2CCOCC2)cc1,"inconclusive: 31.6 µM [activator, single point]"
13,CC1=C/C(=N\OS(=O)(=O)c2ccccc2)C=CC1=O,active: 1.58 µM
14,COc1ccc(OC)c(S(=O)(=O)N(C)CC(=O)Nc2ccc3c(c2)OCO3)c1,"inconclusive: 5.01 µM [activator, partial curve, poor fit]"
15,Cc1ccc(/C=N/NC(=O)c2cccc(S(=O)(=O)Nc3ccccc3Cl)c2)o1,active: 12.6 µM
16,COc1ccc(C(=O)Nc2ccc3nc(N4CCCCC4)cc(C)c3c2)cc1OC,"inconclusive: 22.4 µM [inhibitor, single point]"
17,O=[N+]([O-])c1cc(-c2nc(-c3ccncc3)no2)ccc1Cl,"inconclusive: 12.6 µM [inhibitor, partial curve]"
18,COC(=O)c1sc(NC(=O)c2ccc([N+](=O)[O-])o2)c(C#N)c1C,"inconclusive: 2.82 µM [activator, full curve]"
19,COc1ccc(CC(=O)Nc2ccc3c(c2)CCC3)cc1,"inconclusive: 8.91 µM [activator, partial curve]"
20,Cc1sc(NC(=O)C2CCCC2)c(C#N)c1C,inactive
21,Cc1ccc(C(C)(C)c2ccc(C)cc2)cc1,inactive
22,C/C(CCc1oc2c(Br)cc(Br)cc2c1-c1ccc(C)o1)=N\O,inactive
23,Cn1cc(C(=O)NCC2COc3ccccc3O2)c(=O)c2cc(S(=O)(=O)N3CCCCC3)ccc21 (stereo not given),inactive
24,COc1cc(S(=O)(=O)NCc2ccccn2)ccc1Cl,"inconclusive: 35.5 µM [inhibitor, single point]"
25,O=C1C2CC=C(Cl)CC2C(=O)N1CCc1c[nH]c2ccccc12 (stereo not given),"inconclusive: 5.62 µM [activator, partial curve]"

# Some of the entries so far, bar-delimited.
row | Structure (SMILES) | Potency
21 | Cc1ccc(C(C)(C)c2ccc(C)cc2)cc1 | inactive
22 | C/C(CCc1oc2c(Br)cc(Br)cc2c1-c1ccc(C)o1)=N\O | inactive
23 | Cn1cc(C(=O)NCC2COc3ccccc3O2)c(=O)c2cc(S(=O)(=O)N3CCCCC3)ccc21 (stereo not given) | inactive
